From the supplement of paper PMC12067093, “Discovery and optimisation of a covalent ligand for TRIM25 and its application to targeted protein ubiquitination” (Chemical Science, 2025)
Some of the results follow.

Sequences of proteins named here, by UniProt entry; tags and fusion partners are left off. A change or cut given only in a name is not applied to a line headed by its entry.
UniProt P09525: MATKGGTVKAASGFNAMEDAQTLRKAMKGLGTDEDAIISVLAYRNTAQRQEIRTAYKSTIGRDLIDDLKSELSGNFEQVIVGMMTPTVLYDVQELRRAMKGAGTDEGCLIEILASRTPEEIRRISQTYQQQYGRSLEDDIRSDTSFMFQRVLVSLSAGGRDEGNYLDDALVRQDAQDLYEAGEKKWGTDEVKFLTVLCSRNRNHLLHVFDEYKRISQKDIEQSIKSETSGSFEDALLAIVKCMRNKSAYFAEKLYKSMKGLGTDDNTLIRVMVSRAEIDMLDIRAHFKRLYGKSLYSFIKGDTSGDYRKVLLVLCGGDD
UniProt P63010: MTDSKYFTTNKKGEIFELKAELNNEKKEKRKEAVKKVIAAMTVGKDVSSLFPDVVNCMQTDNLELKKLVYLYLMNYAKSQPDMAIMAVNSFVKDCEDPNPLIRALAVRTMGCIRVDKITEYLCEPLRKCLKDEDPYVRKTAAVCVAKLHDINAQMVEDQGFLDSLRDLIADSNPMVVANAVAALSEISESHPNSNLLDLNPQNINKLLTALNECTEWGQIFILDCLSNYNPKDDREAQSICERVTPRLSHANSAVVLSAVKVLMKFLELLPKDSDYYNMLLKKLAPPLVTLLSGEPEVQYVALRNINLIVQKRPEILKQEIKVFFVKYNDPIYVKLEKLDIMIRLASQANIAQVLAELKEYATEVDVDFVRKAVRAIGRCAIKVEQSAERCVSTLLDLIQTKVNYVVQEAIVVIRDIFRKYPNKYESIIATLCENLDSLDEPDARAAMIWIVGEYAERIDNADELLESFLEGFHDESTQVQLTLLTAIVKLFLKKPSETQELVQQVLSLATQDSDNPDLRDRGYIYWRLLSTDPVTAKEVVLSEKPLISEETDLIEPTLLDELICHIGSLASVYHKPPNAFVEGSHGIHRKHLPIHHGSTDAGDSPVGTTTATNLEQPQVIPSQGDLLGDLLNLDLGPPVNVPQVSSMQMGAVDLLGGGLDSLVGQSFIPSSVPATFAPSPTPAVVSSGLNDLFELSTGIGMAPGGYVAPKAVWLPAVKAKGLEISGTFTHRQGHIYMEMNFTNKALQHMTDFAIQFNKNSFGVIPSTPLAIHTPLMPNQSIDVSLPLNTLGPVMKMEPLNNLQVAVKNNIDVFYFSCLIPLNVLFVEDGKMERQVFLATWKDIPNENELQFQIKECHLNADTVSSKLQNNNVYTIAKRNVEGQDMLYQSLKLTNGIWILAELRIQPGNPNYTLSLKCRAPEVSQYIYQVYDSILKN
UniProt O14617: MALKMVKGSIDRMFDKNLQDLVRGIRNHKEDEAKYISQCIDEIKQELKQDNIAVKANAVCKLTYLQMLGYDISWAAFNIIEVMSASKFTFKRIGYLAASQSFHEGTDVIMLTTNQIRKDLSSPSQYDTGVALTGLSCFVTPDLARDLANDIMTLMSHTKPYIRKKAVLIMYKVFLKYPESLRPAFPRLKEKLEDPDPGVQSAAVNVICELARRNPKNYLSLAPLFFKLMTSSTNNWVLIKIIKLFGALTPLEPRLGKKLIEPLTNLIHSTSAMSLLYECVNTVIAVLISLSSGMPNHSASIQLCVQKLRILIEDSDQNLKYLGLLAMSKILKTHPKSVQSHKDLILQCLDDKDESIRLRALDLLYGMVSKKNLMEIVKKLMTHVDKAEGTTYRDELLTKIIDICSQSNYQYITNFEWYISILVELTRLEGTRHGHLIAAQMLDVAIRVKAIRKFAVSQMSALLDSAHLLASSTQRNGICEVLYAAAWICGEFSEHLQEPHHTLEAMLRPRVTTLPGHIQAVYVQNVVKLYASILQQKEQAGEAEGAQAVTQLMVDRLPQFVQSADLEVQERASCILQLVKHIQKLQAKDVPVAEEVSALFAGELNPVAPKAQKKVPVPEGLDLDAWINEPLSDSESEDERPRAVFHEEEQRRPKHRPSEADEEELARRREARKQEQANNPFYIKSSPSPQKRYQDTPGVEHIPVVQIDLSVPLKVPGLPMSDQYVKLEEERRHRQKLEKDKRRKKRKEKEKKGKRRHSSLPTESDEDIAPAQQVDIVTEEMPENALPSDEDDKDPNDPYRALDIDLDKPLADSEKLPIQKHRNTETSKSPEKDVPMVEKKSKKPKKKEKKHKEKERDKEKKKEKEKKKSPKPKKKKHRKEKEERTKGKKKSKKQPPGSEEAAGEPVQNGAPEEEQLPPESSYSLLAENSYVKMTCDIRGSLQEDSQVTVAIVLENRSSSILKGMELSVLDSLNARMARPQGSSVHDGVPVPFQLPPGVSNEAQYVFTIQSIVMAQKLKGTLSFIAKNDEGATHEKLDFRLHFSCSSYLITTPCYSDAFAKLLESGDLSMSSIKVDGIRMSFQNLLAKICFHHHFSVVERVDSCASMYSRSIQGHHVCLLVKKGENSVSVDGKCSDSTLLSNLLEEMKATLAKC
UniProt Q8NAG6: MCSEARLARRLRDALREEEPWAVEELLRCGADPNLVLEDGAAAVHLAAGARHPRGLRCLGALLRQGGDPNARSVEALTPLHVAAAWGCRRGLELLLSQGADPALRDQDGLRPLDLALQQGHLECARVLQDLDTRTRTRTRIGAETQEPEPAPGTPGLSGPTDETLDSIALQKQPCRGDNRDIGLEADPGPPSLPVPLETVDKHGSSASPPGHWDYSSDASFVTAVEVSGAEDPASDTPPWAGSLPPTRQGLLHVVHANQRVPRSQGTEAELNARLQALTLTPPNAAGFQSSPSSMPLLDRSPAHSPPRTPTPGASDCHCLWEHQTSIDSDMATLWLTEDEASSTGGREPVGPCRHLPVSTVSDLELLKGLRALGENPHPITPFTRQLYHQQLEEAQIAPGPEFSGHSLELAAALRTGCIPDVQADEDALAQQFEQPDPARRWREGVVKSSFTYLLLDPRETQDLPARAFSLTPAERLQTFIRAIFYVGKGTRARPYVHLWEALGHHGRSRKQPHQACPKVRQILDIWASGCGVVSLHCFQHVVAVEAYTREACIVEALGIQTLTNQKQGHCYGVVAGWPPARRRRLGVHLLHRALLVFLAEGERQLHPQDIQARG
UniProt Q10567: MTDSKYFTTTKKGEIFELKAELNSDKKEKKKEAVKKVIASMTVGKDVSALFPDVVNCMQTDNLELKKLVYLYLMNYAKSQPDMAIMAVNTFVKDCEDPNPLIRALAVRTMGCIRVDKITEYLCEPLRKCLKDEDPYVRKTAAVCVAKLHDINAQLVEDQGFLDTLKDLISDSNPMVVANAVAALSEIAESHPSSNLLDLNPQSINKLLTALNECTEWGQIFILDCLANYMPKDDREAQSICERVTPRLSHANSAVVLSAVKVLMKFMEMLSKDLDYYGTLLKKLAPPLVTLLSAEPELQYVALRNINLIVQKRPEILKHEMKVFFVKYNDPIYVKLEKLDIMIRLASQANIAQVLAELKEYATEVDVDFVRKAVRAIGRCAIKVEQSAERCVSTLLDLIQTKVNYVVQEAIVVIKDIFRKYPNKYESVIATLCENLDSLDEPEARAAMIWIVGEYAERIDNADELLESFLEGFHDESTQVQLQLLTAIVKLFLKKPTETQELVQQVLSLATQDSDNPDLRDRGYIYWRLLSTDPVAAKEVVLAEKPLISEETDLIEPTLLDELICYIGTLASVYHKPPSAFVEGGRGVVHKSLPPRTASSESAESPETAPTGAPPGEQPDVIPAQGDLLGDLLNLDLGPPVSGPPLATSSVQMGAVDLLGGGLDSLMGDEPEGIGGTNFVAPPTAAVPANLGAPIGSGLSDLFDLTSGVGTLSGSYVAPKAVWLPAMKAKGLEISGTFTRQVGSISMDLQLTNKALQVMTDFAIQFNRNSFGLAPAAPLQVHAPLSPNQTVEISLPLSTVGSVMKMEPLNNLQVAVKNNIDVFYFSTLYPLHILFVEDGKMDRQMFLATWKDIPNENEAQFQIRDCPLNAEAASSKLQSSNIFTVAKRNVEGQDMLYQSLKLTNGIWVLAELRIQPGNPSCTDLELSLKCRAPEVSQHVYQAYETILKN
UniProt O14727: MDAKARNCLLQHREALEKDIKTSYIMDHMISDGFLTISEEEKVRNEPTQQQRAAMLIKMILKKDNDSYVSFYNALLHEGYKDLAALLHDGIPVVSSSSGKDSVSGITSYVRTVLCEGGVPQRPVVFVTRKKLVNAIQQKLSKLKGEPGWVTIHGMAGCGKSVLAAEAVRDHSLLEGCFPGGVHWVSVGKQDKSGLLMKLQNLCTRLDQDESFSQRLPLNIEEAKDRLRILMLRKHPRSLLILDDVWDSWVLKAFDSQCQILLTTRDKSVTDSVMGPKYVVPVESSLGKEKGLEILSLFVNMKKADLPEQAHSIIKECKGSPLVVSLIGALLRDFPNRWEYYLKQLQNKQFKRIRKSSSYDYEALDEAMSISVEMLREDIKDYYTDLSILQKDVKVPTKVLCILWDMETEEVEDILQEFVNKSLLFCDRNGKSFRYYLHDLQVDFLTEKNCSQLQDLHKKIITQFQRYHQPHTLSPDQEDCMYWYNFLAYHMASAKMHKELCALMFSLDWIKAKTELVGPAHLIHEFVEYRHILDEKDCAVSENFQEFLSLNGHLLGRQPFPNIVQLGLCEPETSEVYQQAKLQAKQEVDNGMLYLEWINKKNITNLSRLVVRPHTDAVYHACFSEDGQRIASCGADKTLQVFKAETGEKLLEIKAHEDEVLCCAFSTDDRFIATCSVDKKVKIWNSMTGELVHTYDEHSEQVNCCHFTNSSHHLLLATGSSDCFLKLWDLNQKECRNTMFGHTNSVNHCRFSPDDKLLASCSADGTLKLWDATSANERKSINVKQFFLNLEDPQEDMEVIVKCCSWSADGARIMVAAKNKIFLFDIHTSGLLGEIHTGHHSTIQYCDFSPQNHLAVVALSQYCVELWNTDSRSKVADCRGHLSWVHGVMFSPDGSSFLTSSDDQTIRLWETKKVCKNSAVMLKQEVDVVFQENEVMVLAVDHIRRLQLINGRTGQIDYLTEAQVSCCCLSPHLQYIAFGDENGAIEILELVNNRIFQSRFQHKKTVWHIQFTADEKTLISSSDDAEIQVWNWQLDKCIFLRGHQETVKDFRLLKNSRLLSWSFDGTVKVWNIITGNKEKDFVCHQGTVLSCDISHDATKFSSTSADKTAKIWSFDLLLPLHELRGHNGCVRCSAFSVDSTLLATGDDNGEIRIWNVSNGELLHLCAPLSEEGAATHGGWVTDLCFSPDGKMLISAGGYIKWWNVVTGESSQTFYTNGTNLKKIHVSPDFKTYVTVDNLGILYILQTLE
UniProt P27695, whole entry, looked up: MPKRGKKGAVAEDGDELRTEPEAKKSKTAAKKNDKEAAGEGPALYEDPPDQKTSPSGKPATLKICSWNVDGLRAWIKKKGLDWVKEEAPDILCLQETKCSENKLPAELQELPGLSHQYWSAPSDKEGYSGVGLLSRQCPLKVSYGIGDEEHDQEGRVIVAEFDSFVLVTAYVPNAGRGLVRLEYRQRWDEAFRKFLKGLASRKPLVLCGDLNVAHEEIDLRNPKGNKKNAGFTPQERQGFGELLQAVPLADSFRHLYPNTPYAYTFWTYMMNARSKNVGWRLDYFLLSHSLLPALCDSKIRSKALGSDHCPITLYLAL
UniProt O95782: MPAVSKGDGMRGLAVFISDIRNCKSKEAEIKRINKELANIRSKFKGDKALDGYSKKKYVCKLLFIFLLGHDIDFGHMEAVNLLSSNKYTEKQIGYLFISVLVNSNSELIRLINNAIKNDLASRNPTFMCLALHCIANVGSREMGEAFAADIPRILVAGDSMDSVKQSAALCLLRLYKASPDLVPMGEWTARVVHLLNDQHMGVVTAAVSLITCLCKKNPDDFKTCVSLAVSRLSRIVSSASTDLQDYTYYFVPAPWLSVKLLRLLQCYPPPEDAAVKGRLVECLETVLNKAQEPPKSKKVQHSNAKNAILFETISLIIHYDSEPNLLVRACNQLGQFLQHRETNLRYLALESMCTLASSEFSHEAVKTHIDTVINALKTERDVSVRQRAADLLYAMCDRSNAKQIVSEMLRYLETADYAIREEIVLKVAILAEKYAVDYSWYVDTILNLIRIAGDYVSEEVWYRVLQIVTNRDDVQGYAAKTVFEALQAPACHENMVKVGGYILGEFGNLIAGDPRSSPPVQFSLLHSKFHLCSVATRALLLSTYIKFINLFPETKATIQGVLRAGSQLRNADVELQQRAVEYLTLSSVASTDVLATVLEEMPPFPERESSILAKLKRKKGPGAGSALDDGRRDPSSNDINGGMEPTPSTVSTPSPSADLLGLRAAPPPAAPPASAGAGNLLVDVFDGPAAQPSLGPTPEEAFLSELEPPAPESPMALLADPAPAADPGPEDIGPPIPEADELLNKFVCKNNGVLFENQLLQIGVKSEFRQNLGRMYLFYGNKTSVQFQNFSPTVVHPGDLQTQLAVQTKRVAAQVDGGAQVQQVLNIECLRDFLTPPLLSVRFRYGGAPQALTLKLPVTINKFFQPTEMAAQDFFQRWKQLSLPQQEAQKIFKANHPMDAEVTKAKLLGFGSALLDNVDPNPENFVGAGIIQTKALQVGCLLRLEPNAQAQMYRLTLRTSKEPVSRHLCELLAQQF

Compound: Cc1cc(ccc1-c1ccccc1)C(=O)N1CCCN(CC1)C(=O)CCl [compound 10]
Test: probe-labelled cysteine peptide fold change vs DMSO (competition) (log2 fold change); higher = less target engagement (more negative = stronger competition)
Settings: THP-1, incubation time: 4 h
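Also: competitive profiling in live THP-1 cells: cysteine peptides tagged with an iodoacetamide desthiobiotin (IA-DTB) probe, intensity after compound treatment relative to DMSO-treated cells.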

Target	probe-labelled cysteine peptide fold change (10 µM)	probe-labelled cysteine peptide fold change (50 µM)
ANKRD45_Q5TZF3_116_GYTLLHCAAAWGR (UniProt Q5TZF3)	0.272	0.322
ANXA4_P09525_198_FLTVLCSR (UniProt P09525)	0.162	0.00477
APOBEC3G_Q9HC16_243_GFLCNQAPHK (UniProt Q9HC16)	0.0129	0.0615
AP3M1_Q9Y2T2_209_SGSTVFAEIQGVIDACIK (UniProt Q9Y2T2)	0.35	0.226
ANKRD44_Q8N8A2_921_CALLILDK (UniProt Q8N8A2)	-0.127	-0.402
AP4B1_Q9Y6B7_298_ELCFVALCHVR (UniProt Q9Y6B7)	-0.0896	0.184
AP4S1_Q9Y587_122_VHIILDEMVLNGCIVETNR (UniProt Q9Y587)	-0.0316	0.117
APEH_P13798_361_QLGENFSGIYCSLLPLGCWSADSQR (UniProt P13798)	0.149	0.291
AP2B1_P63010_241_EAQSICER (UniProt P63010)	-0.254	0.00355
AP3D1_O14617_208_EKLEDPDPGVQSAAVNVICELAR (UniProt O14617)	-0.0755	0.0581
ANKRD44_Q8N8A2_819_FIGNPFTPLHCAIINDHGNCASLLLGAIDSSIVSCR (UniProt Q8N8A2)	-0.184	-0.0251
APLP2_Q06481_133_CLVGEFVSDVLLVPEK (UniProt Q06481)	-0.0811	0.164
ANKZF1_Q9H8Y5_713_CLQDHR (UniProt Q9H8Y5)	0.0306	0.0292
AP2B1_P63010_123_ITEYLCEPLRK (UniProt P63010)	-0.0728	-0.143
APEH_P13798_152_HGPVYEDDCFGCLSWSHSETHLLYVAEK (UniProt P13798)	0.174	0.179
AP2A2_O94973_330_ACNQLGQFLQHR (UniProt O94973)	0.0043	0.00133
ANKRD44_Q8N8A2_408_TCLHAAAAGGNVECIK (UniProt Q8N8A2)	0.0536	-0.313
ANKLE1_Q8NAG6_29_CGADPNLVLEDGAAAVHLAAGAR (UniProt Q8NAG6)	-0.0884	0.239
AP3M1_Q9Y2T2_236_LLDDVSFHPCIR (UniProt Q9Y2T2)	0.245	0.0204
ANKRD17_O75179_442_TDEMHTALMEACMDGHVEVAR (UniProt O75179)	0.144	0.279
APEH_P13798_368_QLGENFSGIYCSLLPLGCWSADSQR (UniProt P13798)	-0.29	-0.435

Already shown: an excerpt of the list.
Target	probe-labelled cysteine peptide fold change (10 µM)	probe-labelled cysteine peptide fold change (50 µM)
APEH_P13798_152_HGPVYEDDCFGCLSWSHSETHLLYVAEK (UniProt P13798)	0.174	0.179
AP2A2_O94973_330_ACNQLGQFLQHR (UniProt O94973)	0.0043	0.00133
ANKRD44_Q8N8A2_408_TCLHAAAAGGNVECIK (UniProt Q8N8A2)	0.0536	-0.313
ANKLE1_Q8NAG6_29_CGADPNLVLEDGAAAVHLAAGAR (UniProt Q8NAG6)	-0.0884	0.239
AP3M1_Q9Y2T2_236_LLDDVSFHPCIR (UniProt Q9Y2T2)	0.245	0.0204

Remaining list, next part:

Target	probe-labelled cysteine peptide fold change (10 µM)	probe-labelled cysteine peptide fold change (50 µM)
ANKRD17_O75179_210_RLTSSVSCALDEAAAALTR (UniProt O75179)	-0.0975	-0.305
APEH_P13798_149+152_HGPVYEDDCFGCLSWSHSETHLLYVAEK (UniProt P13798)	-0.00931	-0.199
ANKMY2_Q8IV38_390_LDVNSNCVNEEQPEAEVGISQK (UniProt Q8IV38)	-0.281	-0.0242
APEH_P13798_594_DVQFAVEQVLQEEHFDASHVALMGGSHGGFISCHLIGQYPETYR (UniProt P13798)	0.218	-0.0284
AP3D1_O14617_137_DLSSPSQYDTGVALTGLSCFVTPDLAR (UniProt O14617)	0.049	-0.394
AP1B1_Q10567_866_DCPLNAEAASSK (UniProt Q10567)	-0.0676	-0.0476
APAF1_O14727_662+663_AHEDEVLCCAFSTDDR (UniProt O14727)	0.237	0.117
ANKRD46_Q86W74_61_GNVDICQLLHK (UniProt Q86W74)	0.00597	-0.0516
API5_Q9BZZ5_71_HFPELADSAINAQLDLCEDEDVSIRR (UniProt Q9BZZ5)	0.0504	0.252
ANKRD17_O75179_644_AGHVCTVQFLISK (UniProt O75179)	-0.21	-0.425
APIP_Q96GX9_147_CTSGGYYR (UniProt Q96GX9)	0.069	0.0716
ANXA4_P09525_315_KVLLVLCGGDD (UniProt P09525)	-0.0611	-0.661
ANKRD17_O75179_672_TTANNDHTVLSLACAGGHLAVVELLLAHGADPTHR (UniProt O75179)	0.191	0.414
AOC1_P19801_417_ALCLFEMPTGVPLRR (UniProt P19801)	-0.051	0.0426
AP3B1_O00203_507_ASILWLIGENCER (UniProt O00203)	0.00997	0.184
ANKLE1_Q8NAG6_517_KQPHQACPK (UniProt Q8NAG6)	-0.0363	-0.377
ANP32A_P39687_87_CPNLTHLNLSGNK (UniProt P39687)	0.0778	0.0507
ANO6_Q4KMQ2_261_RQSEDPSCPNER (UniProt Q4KMQ2)	-0.211	-0.0905
ANLN_Q9NQW6_469_QETHCQSTPLK (UniProt Q9NQW6)	0.055	0.0109
AP1G2_O75843_393_AMMQELQAFLESCPPDLR (UniProt O75843)	0.116	0.369
ANO6_Q4KMQ2_134_VHAPWEVLCTYAEIMHIK (UniProt Q4KMQ2)	0.0082	-0.18

Target	probe-labelled cysteine peptide fold change (10 µM)	probe-labelled cysteine peptide fold change (50 µM)
ANXA6_P08133_59_QRQEVCQSYK (UniProt P08133)	0.0674	0.156
ANXA7_P20073_327_LLVSMCQGNRDENQSINHQMAQEDAQR (UniProt P20073)	-0.0706	-0.21
APIP_Q96GX9_97_SQCTPLFMNAYTMR (UniProt Q96GX9)	-0.0114	-0.156
AP2B1_P63010_95_DCEDPNPLIR (UniProt P63010)	-0.00825	0.246
ANKRD52_Q8NB46_1001_NGLASVVQALLSHGATVLAVDEEGHTPALACAPNK (UniProt Q8NB46)	-0.348	-0.552
ANXA6_P08133_96_LIVGLMRPPAYCDAK (UniProt P08133)	0.00975	0.25
APAF1_O14727_115_TVLCEGGVPQRPVVFVTR (UniProt O14727)	-0.147	-0.00415
APEX1_P27695_310_ALGSDHCPITLYLAL (UniProt P27695)	0.0131	-0.113
AP5M1_Q9H0R1_354_NNFEFCEAHIPFYNR (UniProt Q9H0R1)	0.000119	0.0553
APEX1_P27695_208_KPLVLCGDLNVAHEEIDLRNPK (UniProt P27695)	-0.323	-0.291
APLP2_Q06481_160_MEVCENHQHWHTVVK (UniProt Q06481)	-0.242	-0.455
ANKLE2_Q86XL3_702_NGLCHPLNHSR (UniProt Q86XL3)	0.00413	-0.333
APOBR_Q0VD83_844_VEAEESAGAEDSCGLDPAGSQTAR (UniProt Q0VD83)	-0.0157	-0.0217
AOAH_P28039_329_RNHCNHR (UniProt P28039)	-0.129	0.26
ANXA11_P50995_384_FNAVLCSR (UniProt P50995)	-0.177	-0.173
APMAP_Q9HDC9_140_FGSGPCK (UniProt Q9HDC9)	-0.158	0.0996
ANXA11_P50995_294_GVGTDEACLIEILASR (UniProt P50995)	-0.071	-0.0761
ANP32B_Q92688_27_ELVLDNCK (UniProt Q92688)	-0.0885	0.13
ANKHD1_Q8IWZ3_643_ATANNDHTVVSLACAGGHLAVVELLLAHGADPTHR (UniProt Q8IWZ3)	0.218	0.0558
AP1G1_O43747_392_ELLYFLDSCEPEFK (UniProt O43747)	0.183	0.273
AP2B1_P63010_391_CVSTLLDLIQTK (UniProt P63010)	0.0285	0.291

Target	probe-labelled cysteine peptide fold change (10 µM)	probe-labelled cysteine peptide fold change (50 µM)
AOC1_P19801_391_YLDVGWGLGSVTHELAPGIDCPETATFLDTFHYYDADDPVHYPR (UniProt P19801)	0.166	0.4
ANKLE1_Q8NAG6_124_DQDGLRPLDLALQQGHLECAR (UniProt Q8NAG6)	-0.0534	0.189
AP3D1_O14617_935_MTCDIR (UniProt O14617)	-0.00118	0.0604
APEX1_P27695_65_ICSWNVDGLR (UniProt P27695)	0.181	-0.0202
AP3D1_O14617_574_ASCILQLVK (UniProt O14617)	-0.178	-0.161
APAF1_O14727_177_DHSLLEGCFPGGVHWVSVGK (UniProt O14727)	-0.0502	-0.155
AP2A1_O95782_492_TVFEALQAPACHENMVK (UniProt O95782)	0.0987	0.0873
AP2A1_O95782_970_HLCELLAQQF (UniProt O95782)	0.0634	0.18
AP2A1_O95782_533_FHLCSVATR (UniProt O95782)	-0.326	0.254
ANKRD49_Q8WVL7_149_AAYSGHLDIVQELIAQGADVHAVTVDGWTPLHSACK (UniProt Q8WVL7)	0.0824	-0.0101
APBB1IP_Q7Z5R6_215_THCDCNVDWCLYEIYPELQIER (UniProt Q7Z5R6)	-0.0357	0.33
APOH_P02749_345_TDASDVKPC (UniProt P02749)	-0.931	-0.957
AP2B1_P63010_144_KTAAVCVAK (UniProt P63010)	-0.0881	-0.732
ANPEP_P15144_834_AALACSK (UniProt P15144)	-0.154	0.377
ANKRD50_Q9ULJ7_161_LRDPAVQSLLQPGECER (UniProt Q9ULJ7)	0.0521	-0.0666
AP2M1_Q96CW1_246_QSIAIDDCTFHQCVR (UniProt Q96CW1)	0.118	-0.0483
AP1B1_Q10567_921_IQPGNPSCTDLELSLK (UniProt Q10567)	0.155	-0.0625
APAF1_O14727_675_AHEDEVLCCAFSTDDRFIATCSVDK (UniProt O14727)	0.114	-0.0285
API5_Q9BZZ5_297_LLAEMSSFCGDMEK (UniProt Q9BZZ5)	0.176	0.385
